{"source": "PubChem BioAssay AID1224828, NIAID – 2016", "aim": "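Knock-downs that increase or decrease LPS-induced p65 nuclear translocation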 (primary screen)", "cells": "mouse RAW264.7 G9 macrophage reporter cells (GFP-p65, Tnf promoter-mCherry)", "reagents": "siRNA pool against mouse genes, 100 nM", "timing": "2 days siRNA transfection, then 40 min LPS before fixation", "conditions": "LPS (Salmonella minnesota R595) at 10 ng/ml", "read-out": "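Imaged p65 nuclear translocation ratio, normalised to the plate median, converted to robust z-scores and averaged across two replicates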", "scale": "p65 translocation robust z-score: higher = more nuclear NF-kappaB p65 after LPS than the plate median; nuclear/cytoplasmic p65 ratio: higher = more nuclear NF-kappaB p65", "rule for the call": "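Active if robust z is above 3.3 (negative regulators) or below -1.56, the Tlr4 control median (positive regulators); activity score 50 or more; control wells not called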", "meaning of the calls": "active = hit (p65 shift raised or lowered); inactive = no clear change", "note": "The whole screen tested about 17,000 reagents; shown is an unselected part. 762 of all reagents (4.5%) count as active. 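Active calls include both raised and lowered p65 entry, mostly lowered; wells with fewer than 50 cells lack a z-score.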 Raw values vary from plate to plate and are shown uncorrected."}
{"gene symbol": "Or12k8 (GeneID 258365)", "PubChem SID": "SID315480053", "nuclear/cytoplasmic p65 ratio, rep 1": 1.36, "nuclear/cytoplasmic p65 ratio, rep 2": 1.12, "low cell count flag": "fewer than 50 cells per well; well left out of scoring", "outcome": "inactive"}
{"gene symbol": "P3h1 (GeneID 56401)", "PubChem SID": "SID315471509", "p65 translocation robust z-score": 1.86, "nuclear/cytoplasmic p65 ratio, rep 1": 2.03, "nuclear/cytoplasmic p65 ratio, rep 2": 1.79, "low cell count flag": "enough cells to score", "outcome": "inactive"}
{"gene symbol": "Shb (GeneID 230126)", "PubChem SID": "SID315478765", "p65 translocation robust z-score": -0.29, "nuclear/cytoplasmic p65 ratio, rep 1": 1.48, "nuclear/cytoplasmic p65 ratio, rep 2": 1.54, "low cell count flag": "enough cells to score", "outcome": "inactive"}
{"gene symbol": "Crybb2 (GeneID 12961)", "PubChem SID": "SID315466144", "p65 translocation robust z-score": -1.4, "nuclear/cytoplasmic p65 ratio, rep 1": 1.27, "nuclear/cytoplasmic p65 ratio, rep 2": 1.21, "low cell count flag": "enough cells to score", "outcome": "inactive"}
{"gene symbol": "Stox2 (GeneID 71069)", "PubChem SID": "SID315474179", "p65 translocation robust z-score": -1.12, "nuclear/cytoplasmic p65 ratio, rep 1": 1.18, "nuclear/cytoplasmic p65 ratio, rep 2": 1.17, "low cell count flag": "enough cells to score", "outcome": "inactive"}
{"gene symbol": "Wdr36 (GeneID 225348)", "PubChem SID": "SID315478414", "p65 translocation robust z-score": 2.28, "nuclear/cytoplasmic p65 ratio, rep 1": 1.77, "nuclear/cytoplasmic p65 ratio, rep 2": 1.65, "low cell count flag": "enough cells to score", "outcome": "inactive"}
{"gene symbol": "Zfand1 (GeneID 66361)", "PubChem SID": "SID315472388", "nuclear/cytoplasmic p65 ratio, rep 1": 1.34, "nuclear/cytoplasmic p65 ratio, rep 2": 1.21, "low cell count flag": "fewer than 50 cells per well; well left out of scoring", "outcome": "inactive"}
{"gene symbol": "Serpinb5 (GeneID 20724)", "PubChem SID": "SID315469420", "p65 translocation robust z-score": 0.63, "nuclear/cytoplasmic p65 ratio, rep 1": 1.82, "nuclear/cytoplasmic p65 ratio, rep 2": 1.47, "low cell count flag": "enough cells to score", "outcome": "inactive"}
{"gene symbol": "Sprr2e (GeneID 20759)", "PubChem SID": "SID315469444", "p65 translocation robust z-score": 0.94, "nuclear/cytoplasmic p65 ratio, rep 1": 1.56, "nuclear/cytoplasmic p65 ratio, rep 2": 1.32, "low cell count flag": "enough cells to score", "outcome": "inactive"}
{"gene symbol": "Chchd1 (GeneID 66121)", "PubChem SID": "SID315472228", "p65 translocation robust z-score": 3.39, "nuclear/cytoplasmic p65 ratio, rep 1": 1.96, "nuclear/cytoplasmic p65 ratio, rep 2": 1.96, "low cell count flag": "enough cells to score", "outcome": "active"}
{"gene symbol": "Kif1b (GeneID 16561)", "PubChem SID": "SID315467616", "nuclear/cytoplasmic p65 ratio, rep 1": 1.25, "nuclear/cytoplasmic p65 ratio, rep 2": 1.09, "low cell count flag": "fewer than 50 cells per well; well left out of scoring", "outcome": "inactive"}
{"gene symbol": "Synpo2l (GeneID 68760)", "PubChem SID": "SID315473627", "p65 translocation robust z-score": 0.61, "nuclear/cytoplasmic p65 ratio, rep 1": 1.49, "nuclear/cytoplasmic p65 ratio, rep 2": 1.22, "low cell count flag": "enough cells to score", "outcome": "inactive"}

Taken from above:
For “nuclear/cytoplasmic p65 ratio, rep 1”, Zfand1 (GeneID 66361) [SID315472388] reads 1.34
Value for Serpinb5 (GeneID 20724) [SID315469420] in “nuclear/cytoplasmic p65 ratio, rep 2”: 1.47
